The list does not hold the whole screen: it gathers tests that were run many times, whatever their T/C, doses with no T/C, and many T/C values between a quarter and a half above the control. Other doses and runs of a compound stand elsewhere. T/C: endpoint of the treated group in % of that of the vehicle group. Some doses have a count of surviving animals in place of a T/C: the source files T/C as zero there, which appears to mark a toxic dose or a test without result, not a measured value. Some survivor counts are full or nearly so, which does not show that the dose was tolerated: survival well below the control is almost never listed, so the zero probably covers shortened survival too. Survivors were counted at the toxicity check, usually on the fifth day, unless a day is given; later deaths do not show. Schedule codes are those of the source, read here as Q, the interval in days (D) or hours (H), X, the number of doses. Some entries were tested several times; the results are listed from low to high. Some schedules carry Z or #; the key to these is not given. For survival time, the PubChem record calls one and a half times the control and up active, and a quarter to a half above the control has no call in these data; cut-offs in other NCI protocols can differ. Some T/C values carry the count of animals alive at the toxicity check (mostly the fifth day); where none is given, no animal had died by that day.

The assay relates to BDF1 mice, L1210 6-MP/6-TG resistant leukemia ip, survival T/C. In words: NCI In Vivo Anticancer Drug Screen. Data for tumor model L1210 Leukemia resistant to 6-MP and 6-Thioguanine; NSC 755, NSC 752 (intraperitoneal) in B6D2F1 (BDF1) mice. The settings on record: T/C endpoint: mean survival time, higher T/C = longer survival. The protocol:
The antitumor activity of compounds was measured in mice bearing transplantable tumors. Survival or tumor size were measured and the results are expressed as the measurement made in the treated group (T) divided by the measurement made in the vehicle treated control group (C). The tumor model used in this assay is L1210 Leukemia resistant to 6-MP and 6-Thioguanine; NSC 755, NSC 752 (intraperitoneal) in B6D2F1 (BDF1) mice

The mark [1] stands for this setting: dose: 20.0 mg/kg/injection, schedule: Q01DX Z (ip), vehicle: carboxymethylcellulose (CMC).
Setting [2] is: dose: 100.0 mg/kg/injection, schedule: Q01DX015 (ip), vehicle: other.
Setting [3] is: dose: 100.0 mg/kg/injection, schedule: Q01DX Z (ip), vehicle: saline.
[4] abbreviates: dose: 200.0 mg/kg/injection, schedule: Q01DX Z (ip), vehicle: saline.
Where [5] appears, read: dose: 50.0 mg/kg/injection, schedule: Q01DX Z (ip), vehicle: saline.
Setting [6] is: dose: 22.0 mg/kg/injection, schedule: Q01DX001 (ip), vehicle: saline.

For the molecule `O=C(O)c1cc[c]([Hg][S]c2ncnc3nc[nH]c23)cc1`, the survivor count (dose: 50.0 mg/kg/injection, schedule: Q01DX015 (ip), vehicle: carboxymethylcellulose (CMC)) was 3 of 6.

For `CCCCNc1ncnc2c1cnn2C`, the survivor count (dose: 250.0 mg/kg/injection, schedule: Q01DX Z (ip), vehicle: saline) was 0 of 6.

For `NC(Cc1ccc(N(CCCl)CCCl)cc1)C(=O)O` (stereo not given), the T/C was 144 % of control (dose: 0.25 mg/kg/injection, schedule: Q01DX Z (ip), vehicle: carboxymethylcellulose (CMC)) and 135 % of control (dose: 1.87 mg/kg/injection, schedule: Q01DX Z (ip), vehicle: carboxymethylcellulose (CMC)). Besides, the survivor count by setting is: (dose: 10.0 mg/kg/injection, schedule: Q01DX Z (ip), vehicle: carboxymethylcellulose (CMC)) 2 of 6; (dose: 15.0 mg/kg/injection, schedule: Q01DX Z (ip), vehicle: carboxymethylcellulose (CMC)) 4 of 6; under setting [1], 3 of 6.

For the molecule `CSc1ncnc2c1ncn2CO`, the survivor count (dose: 200.0 mg/kg/injection, schedule: Q01DX009 (ip), vehicle: other) is recorded as 3 of 10.

On to `Clc1ncnc2nc[nH]c12`, for which the survivor count is 6 of 6 (dose: 100.0 mg/kg/injection, schedule: Q01DX Z (ip), vehicle: carboxymethylcellulose (CMC)); 6 of 6 (dose: 250.0 mg/kg/injection, schedule: Q01DX Z (ip), vehicle: carboxymethylcellulose (CMC)); 1 of 6 (dose: 350.0 mg/kg/injection, schedule: Q01DX Z (ip), vehicle: carboxymethylcellulose (CMC)); 0 of 6 (dose: 400.0 mg/kg/injection, schedule: Q01DX Z (ip), vehicle: carboxymethylcellulose (CMC)); 0 of 10 and 1 of 10 (dose: 500.0 mg/kg/injection, schedule: Q01DX001 (ip), vehicle: carboxymethylcellulose (CMC)); 0 of 10 (dose: 750.0 mg/kg/injection, schedule: Q01DX001 (ip), vehicle: carboxymethylcellulose (CMC)). For the same molecule, the survivor count (dose: 1000.0 mg/kg/injection, schedule: Q01DX001 (ip), vehicle: carboxymethylcellulose (CMC)) is on record as 0 of 10.

On to `S=c1nc[nH]c2c1ncn2C1CCCC1`, for which the T/C (dose: 30.0 mg/kg/injection, schedule: Q01DX015 (ip), vehicle: saline) is 127 % of control.

In the case of `CC(C)Cn1cnc2c(Sc3c([N+](=O)[O-])ncn3C)nc(N)nc21`, the T/C (dose: 4.0 mg/kg/injection, schedule: Q01DX015 (ip), vehicle: other) was 125 % of control. In addition, the survivor count under setting [2] is given as 10 of 10.

On to `O=C(Nc1ccc(C2=NCCN2)cc1)c1ccc(C(=O)Nc2ccc(C3=NCCN3)cc2)c(Cl)c1`, for which the T/C runs as follows: (dose: 5.7 mg/kg/injection, schedule: Q01DX015 (ip), vehicle: carboxymethylcellulose (CMC)) 148 % of control; (dose: 6.7 mg/kg/injection, schedule: Q01DX015 (ip), vehicle: carboxymethylcellulose (CMC)) 147 % of control; (dose: 7.0 mg/kg/injection, schedule: Q01DX015 (ip), vehicle: carboxymethylcellulose (CMC)) 129 % of control; (dose: 10.0 mg/kg/injection, schedule: Q01DX015 (ip), vehicle: carboxymethylcellulose (CMC)) 140 % of control; (dose: 13.0 mg/kg/injection, schedule: Q01DX015 (ip), vehicle: carboxymethylcellulose (CMC)) 87, 190, 221, 271 % of control; (dose: 20.0 mg/kg/injection, schedule: Q02DX010 (ip), vehicle: carboxymethylcellulose (CMC)) 146 % of control [9 of 10 alive]. In addition, the T/C (dose: 67.5 mg/kg/injection, schedule: Q02DX010 (ip), vehicle: carboxymethylcellulose (CMC)) is 131 % of control.

With `COc1cc([C@@H]2c3cc4c(cc3[C@H](O)[C@H]3COC(=O)[C@@H]23)OCO4)cc(OC)c1OC`, under setting [1], the T/C is 141 % of control. In addition, the survivor count (dose: 80.0 mg/kg/injection, schedule: Q01DX Z (ip), vehicle: carboxymethylcellulose (CMC)) was 6 of 6.

`NS(=O)(=O)c1ncnc2nc[nH]c12`: the T/C (dose: 4.0 mg/kg/injection, schedule: Q01DX Z (ip), vehicle: carboxymethylcellulose (CMC)) was 129 % of control; the T/C (dose: 8.0 mg/kg/injection, schedule: Q01DX Z (ip), vehicle: carboxymethylcellulose (CMC)) was 136 % of control; the T/C (dose: 12.0 mg/kg/injection, schedule: Q01DX Z (ip), vehicle: saline) is 132 % of control. The survivor count under setting [3] was 4 of 7.

Turning to `CS(=O)(=O)OCCCl`, the survivor count under setting [4] is 4 of 6.

With `CCCNc1ncnc2[nH]ncc12`, the survivor count is 6 of 6 under setting [5]; 6 of 6 (dose: 75.0 mg/kg/injection, schedule: Q01DX Z (ip), vehicle: saline); 0 of 6 under setting [3].

Consider `CN(C)[C@@H]1C(=O)C(C(=O)NCc2nc3[nH]cnc(=S)c3[nH]2)=C(O)[C@@]2(O)C(=O)C3=C(O)c4c(O)cccc4[C@@](C)(O)[C@H]3C[C@@H]12`, for which the survivor count (dose: 200.0 mg/kg/injection, schedule: Q01DX009 (ip), vehicle: carboxymethylcellulose (CMC)) was 6 of 6.

For `Nc1nc2n[nH]nc2c(=O)[nH]1`, the survivor count by setting is: (dose: 250.0 mg/kg/injection, schedule: Q01DX Z (ip), vehicle: water) 6 of 6; (dose: 300.0 mg/kg/injection, schedule: Q01DX Z (ip), vehicle: water) 4 of 6; (dose: 350.0 mg/kg/injection, schedule: Q01DX Z (ip), vehicle: water) 5 of 6.

Turning to `O=NN(CCCl)C(=O)NCCCl`, the T/C is 102, 115, 118, 152 % of control (dose: 1.0 mg/kg/injection, schedule: Q01DX015 (ip), vehicle: saline) and 116, 169, 173, 184 % of control (dose: 4.0 mg/kg/injection, schedule: Q01DX015 (ip), vehicle: saline).

Turning to `On1cnc(=S)c2[nH]cnc21`, the survivor count (dose: 750.0 mg/kg/injection, schedule: Q01DX015 (ip), vehicle: carboxymethylcellulose (CMC)) is listed as 6 of 6 and the survivor count (dose: 1000.0 mg/kg/injection, schedule: Q01DX015 (ip), vehicle: carboxymethylcellulose (CMC)) is 2 of 6.

Regarding `CCCSc1ncnc2nc[nH]c12`, under “dose: 350.0 mg/kg/injection, schedule: Q01DX Z (ip), vehicle: other”, the survivor count was 0 of 6.

Take `Nc1nc(=S)c2ncn(C3OC(CO)CC3O)c2[nH]1` (stereo not given): the survivor count was 6 of 6 (dose: 12.0 mg/kg/injection, schedule: Q01DX009 (ip), vehicle: other); 6 of 6 (dose: 25.0 mg/kg/injection, schedule: Q01DX015 (ip), vehicle: other); 6 of 6 (dose: 50.0 mg/kg/injection, schedule: Q01DX015 (ip), vehicle: other); 6 of 6 under setting [2].

As for `C[N+](C)(C)c1ncnc2nc[nH]c12`, the survivor count runs as follows: (dose: 180.0 mg/kg/injection, schedule: Q01DX Z (ip), vehicle: saline) 10 of 10; under setting [4], 6 of 6; (dose: 300.0 mg/kg/injection, schedule: Q01DX Z (ip), vehicle: saline) 4 of 6.

`Nc1nc(F)nc2c1ncn2C1OC(CO)C(O)C1O` (stereo not given): the T/C is 97, 103, 106, 111 % of control (dose: 15.0 mg/kg/injection, schedule: Q01DX001 (ip), vehicle: saline) and 101, 107 [7 of 10 alive], 110 % of control under setting [6]. Further, the survivor count reads like this: under setting [6], 9 of 10; (dose: 33.0 mg/kg/injection, schedule: Q01DX001 (ip), vehicle: saline) 6 of 10, 7 of 10, 8 of 10.

As to `O=P1(N(CCCl)CCCl)NCCCO1` (stereo not given), the T/C is, setting by setting: (dose: 18.0 mg/kg/injection, schedule: Q01DX Z (ip), vehicle: saline) 126 % of control; (dose: 25.0 mg/kg/injection, schedule: Q01DX Z (ip), vehicle: saline) 137 % of control; under setting [5], 145 % of control. In addition, the survivor count is recorded as 6 of 6 under setting [4] and 0 of 6 (dose: 400.0 mg/kg/injection, schedule: Q01DX Z (ip), vehicle: saline).
